This is an account of results in publication PMC6895206.

Protein sequences, listed by entry. Tags and fused reporters are not part of them.
UniProt P97313: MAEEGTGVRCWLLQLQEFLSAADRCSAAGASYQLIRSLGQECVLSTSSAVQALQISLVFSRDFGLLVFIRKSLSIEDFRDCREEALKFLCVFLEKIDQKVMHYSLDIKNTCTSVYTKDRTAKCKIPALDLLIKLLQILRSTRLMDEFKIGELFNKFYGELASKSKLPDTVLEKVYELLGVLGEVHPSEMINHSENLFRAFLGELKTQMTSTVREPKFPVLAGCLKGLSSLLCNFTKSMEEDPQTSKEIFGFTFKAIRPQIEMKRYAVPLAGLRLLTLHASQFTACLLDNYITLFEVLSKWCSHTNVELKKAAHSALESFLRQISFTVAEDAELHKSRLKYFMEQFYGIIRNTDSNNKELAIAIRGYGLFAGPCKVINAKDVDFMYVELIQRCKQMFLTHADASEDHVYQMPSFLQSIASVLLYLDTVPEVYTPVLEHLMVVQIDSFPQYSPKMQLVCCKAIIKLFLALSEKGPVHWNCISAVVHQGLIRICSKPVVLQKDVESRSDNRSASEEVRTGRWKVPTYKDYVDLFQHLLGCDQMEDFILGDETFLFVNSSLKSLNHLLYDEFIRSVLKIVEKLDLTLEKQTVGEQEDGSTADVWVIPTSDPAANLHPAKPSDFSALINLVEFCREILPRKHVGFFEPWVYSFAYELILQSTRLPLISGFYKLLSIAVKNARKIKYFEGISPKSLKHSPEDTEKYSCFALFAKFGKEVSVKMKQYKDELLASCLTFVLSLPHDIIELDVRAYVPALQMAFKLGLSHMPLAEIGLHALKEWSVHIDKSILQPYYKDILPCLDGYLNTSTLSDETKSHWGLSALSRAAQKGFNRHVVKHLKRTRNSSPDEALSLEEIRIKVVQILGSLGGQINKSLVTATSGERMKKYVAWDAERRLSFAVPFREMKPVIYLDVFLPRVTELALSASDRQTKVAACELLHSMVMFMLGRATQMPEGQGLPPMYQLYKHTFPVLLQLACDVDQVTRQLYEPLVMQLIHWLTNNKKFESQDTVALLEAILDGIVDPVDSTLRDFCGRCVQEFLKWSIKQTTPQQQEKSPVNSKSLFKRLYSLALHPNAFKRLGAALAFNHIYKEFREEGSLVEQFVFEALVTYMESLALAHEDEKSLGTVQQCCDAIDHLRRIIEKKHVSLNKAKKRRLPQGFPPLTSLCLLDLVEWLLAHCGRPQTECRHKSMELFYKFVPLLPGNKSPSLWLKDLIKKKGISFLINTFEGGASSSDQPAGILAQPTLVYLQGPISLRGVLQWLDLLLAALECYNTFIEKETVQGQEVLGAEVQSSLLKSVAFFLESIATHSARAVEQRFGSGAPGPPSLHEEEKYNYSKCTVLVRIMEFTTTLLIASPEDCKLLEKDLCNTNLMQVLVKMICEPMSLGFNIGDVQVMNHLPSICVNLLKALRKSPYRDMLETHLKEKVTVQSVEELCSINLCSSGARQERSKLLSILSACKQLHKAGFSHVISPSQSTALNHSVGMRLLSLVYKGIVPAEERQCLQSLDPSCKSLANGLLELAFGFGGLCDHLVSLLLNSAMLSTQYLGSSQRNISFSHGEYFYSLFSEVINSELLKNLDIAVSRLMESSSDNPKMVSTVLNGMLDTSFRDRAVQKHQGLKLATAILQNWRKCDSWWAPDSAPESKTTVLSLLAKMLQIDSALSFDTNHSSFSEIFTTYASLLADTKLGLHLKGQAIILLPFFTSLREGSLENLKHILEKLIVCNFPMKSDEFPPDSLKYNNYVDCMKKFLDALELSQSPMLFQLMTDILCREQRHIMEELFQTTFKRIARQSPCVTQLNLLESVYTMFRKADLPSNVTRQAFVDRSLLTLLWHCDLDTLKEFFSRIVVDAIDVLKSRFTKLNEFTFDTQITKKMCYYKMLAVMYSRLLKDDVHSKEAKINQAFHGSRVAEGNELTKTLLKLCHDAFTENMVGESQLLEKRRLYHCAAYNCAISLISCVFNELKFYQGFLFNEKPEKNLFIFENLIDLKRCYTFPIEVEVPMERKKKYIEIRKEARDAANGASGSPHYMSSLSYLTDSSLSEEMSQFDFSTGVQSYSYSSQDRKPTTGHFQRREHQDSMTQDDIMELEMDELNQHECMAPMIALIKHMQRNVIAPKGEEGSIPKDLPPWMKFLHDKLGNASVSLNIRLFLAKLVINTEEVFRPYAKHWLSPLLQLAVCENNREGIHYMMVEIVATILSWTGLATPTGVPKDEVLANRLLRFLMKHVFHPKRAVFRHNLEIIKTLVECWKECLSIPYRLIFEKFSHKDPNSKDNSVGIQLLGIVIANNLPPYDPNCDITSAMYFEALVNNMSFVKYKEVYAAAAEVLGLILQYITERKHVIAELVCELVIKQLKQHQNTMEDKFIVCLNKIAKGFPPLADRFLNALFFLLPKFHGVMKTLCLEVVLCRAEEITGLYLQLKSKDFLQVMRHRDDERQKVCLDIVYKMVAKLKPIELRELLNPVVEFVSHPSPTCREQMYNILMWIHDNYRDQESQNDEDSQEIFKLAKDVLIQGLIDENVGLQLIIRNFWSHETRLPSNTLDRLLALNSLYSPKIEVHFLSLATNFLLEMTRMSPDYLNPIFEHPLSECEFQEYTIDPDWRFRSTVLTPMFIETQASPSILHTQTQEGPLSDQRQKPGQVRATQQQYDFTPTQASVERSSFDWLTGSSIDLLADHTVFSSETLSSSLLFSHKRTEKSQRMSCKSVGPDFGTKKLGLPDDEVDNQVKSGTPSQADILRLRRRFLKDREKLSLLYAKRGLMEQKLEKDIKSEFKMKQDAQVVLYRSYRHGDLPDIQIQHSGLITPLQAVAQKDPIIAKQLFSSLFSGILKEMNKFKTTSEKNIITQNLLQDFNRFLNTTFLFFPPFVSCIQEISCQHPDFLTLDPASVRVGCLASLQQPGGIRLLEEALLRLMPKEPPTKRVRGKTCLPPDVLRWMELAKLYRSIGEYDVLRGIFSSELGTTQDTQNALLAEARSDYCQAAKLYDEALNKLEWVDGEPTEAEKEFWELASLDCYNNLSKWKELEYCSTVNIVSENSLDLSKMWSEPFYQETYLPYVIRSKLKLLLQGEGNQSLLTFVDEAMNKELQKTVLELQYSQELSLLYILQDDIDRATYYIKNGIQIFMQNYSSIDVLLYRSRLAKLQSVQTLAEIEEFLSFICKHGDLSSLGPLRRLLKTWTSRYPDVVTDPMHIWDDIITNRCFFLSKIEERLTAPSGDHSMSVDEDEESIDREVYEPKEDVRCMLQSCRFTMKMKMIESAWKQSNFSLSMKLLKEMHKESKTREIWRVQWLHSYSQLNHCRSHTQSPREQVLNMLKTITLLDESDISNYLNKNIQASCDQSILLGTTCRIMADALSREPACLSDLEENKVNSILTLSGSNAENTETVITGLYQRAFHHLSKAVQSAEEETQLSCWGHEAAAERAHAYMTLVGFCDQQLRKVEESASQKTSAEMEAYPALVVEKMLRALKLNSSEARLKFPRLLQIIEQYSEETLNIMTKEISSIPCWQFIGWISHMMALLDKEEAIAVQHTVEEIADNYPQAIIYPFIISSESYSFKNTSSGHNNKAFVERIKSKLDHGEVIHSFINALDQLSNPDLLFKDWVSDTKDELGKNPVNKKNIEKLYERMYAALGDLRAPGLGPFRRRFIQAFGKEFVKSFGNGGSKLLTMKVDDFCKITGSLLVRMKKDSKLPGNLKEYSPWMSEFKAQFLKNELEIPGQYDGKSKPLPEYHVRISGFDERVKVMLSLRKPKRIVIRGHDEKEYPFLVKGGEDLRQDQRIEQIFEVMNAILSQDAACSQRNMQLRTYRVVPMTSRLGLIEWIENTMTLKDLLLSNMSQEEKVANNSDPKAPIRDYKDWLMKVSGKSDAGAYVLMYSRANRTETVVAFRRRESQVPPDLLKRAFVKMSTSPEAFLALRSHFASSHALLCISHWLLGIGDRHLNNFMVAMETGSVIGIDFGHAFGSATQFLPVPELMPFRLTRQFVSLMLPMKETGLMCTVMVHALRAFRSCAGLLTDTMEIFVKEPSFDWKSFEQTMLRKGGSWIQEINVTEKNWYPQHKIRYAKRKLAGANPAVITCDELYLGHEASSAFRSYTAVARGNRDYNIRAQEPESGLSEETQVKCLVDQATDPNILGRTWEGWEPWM
UniProt P02340: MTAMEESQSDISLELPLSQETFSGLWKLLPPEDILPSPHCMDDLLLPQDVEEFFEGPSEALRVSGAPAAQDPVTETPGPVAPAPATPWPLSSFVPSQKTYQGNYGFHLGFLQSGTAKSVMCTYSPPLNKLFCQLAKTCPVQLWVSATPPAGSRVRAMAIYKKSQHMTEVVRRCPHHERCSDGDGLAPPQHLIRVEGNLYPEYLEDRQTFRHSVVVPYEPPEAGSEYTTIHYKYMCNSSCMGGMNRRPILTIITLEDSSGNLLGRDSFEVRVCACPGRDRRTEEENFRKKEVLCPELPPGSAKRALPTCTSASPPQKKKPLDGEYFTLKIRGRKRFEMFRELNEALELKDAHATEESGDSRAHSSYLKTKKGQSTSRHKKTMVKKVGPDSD
UniProt P27641: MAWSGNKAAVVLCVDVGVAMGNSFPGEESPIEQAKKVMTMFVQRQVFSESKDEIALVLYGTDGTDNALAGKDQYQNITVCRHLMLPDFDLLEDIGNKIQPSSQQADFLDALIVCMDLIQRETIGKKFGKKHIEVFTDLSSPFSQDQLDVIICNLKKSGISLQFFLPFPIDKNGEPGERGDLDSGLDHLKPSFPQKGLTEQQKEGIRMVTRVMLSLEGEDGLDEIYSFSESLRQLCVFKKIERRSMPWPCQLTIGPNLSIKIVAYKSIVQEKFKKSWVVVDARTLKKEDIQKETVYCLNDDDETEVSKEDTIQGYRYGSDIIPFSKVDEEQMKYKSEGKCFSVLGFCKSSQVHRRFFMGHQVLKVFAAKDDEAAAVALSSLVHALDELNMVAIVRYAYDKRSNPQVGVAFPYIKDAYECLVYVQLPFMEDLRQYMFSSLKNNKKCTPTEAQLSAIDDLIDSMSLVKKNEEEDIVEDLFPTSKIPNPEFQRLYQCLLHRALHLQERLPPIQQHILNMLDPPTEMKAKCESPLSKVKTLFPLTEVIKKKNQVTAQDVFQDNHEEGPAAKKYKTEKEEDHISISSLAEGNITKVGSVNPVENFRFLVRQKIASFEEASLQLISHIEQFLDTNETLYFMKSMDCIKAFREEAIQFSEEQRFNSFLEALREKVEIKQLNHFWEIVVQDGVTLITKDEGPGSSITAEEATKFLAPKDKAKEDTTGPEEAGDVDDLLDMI

Results are given in words; binding and its absence hold for the method and conditions named. In cells and extracts the contact can be indirect. Some entries that bind do so weakly or less than the wild type.

For assay [1], the target named is DNA-dependent protein kinase catalytic subunit (mouse (endogenous in primary hepatocytes)) (UniProt P97313). Description: co-IP; endogenous proteins of primary hepatocytes; DNA-PKcs as bait; cells under normal conditions, with alcohol, or with alcohol and NR4A1 siRNA.
The target is the same in assay [2]. Briefly: co-IP; endogenous proteins of primary hepatocytes after exposure to alcohol stress; DNA-PKcs as bait.

Take p53 (from UniProt P02340 1-390): the binding entry in assay [1] was “binds”.

For the substance Ku80 (from UniProt P27641 1-732), the figures for the binding result in assay [2] and in assay [1] were “binds weakly” and “binds”, respectively.
